Results on one compound are retold here after patent publication US9381349B2, “Apparatus for treating cerebral neurovascular disorders including headaches by neural stimulation” (priority 1997, dated 2016).

For data set [1] the following is noted: cited from earlier work.
The next data set deals with migraine. Particulars: lidocaine, Intranasal Spray, of patients who exhibited relief, usually within one hour post-treatment, cited from earlier work.
The next data set has as its system headache. Particulars: 10% (w/v) lidocaine solution; three patients.

Read-outs that look alike come from different tables or passages of the source.

Turning to `CCN(CC)CC(=O)Nc1c(C)cccc1C` [Lidocaine, lidocaine], in data set [1], the “Proportion bound to protein in vivo” value is given as “about 65%”. The results for the “Rebound Rate” value in the data set on migraine and in the data set on migraine (listed as lidocaine) were 42% and “at least 42%”, respectively. The “Rebound of headache symptoms” value in the data set with headache is recorded as “rebounded in two of the patients in less than one hour”.
